# Results reported in the supplement of paper PMC10331698.
# ± gives the standard deviation of the averaged measurements. Most values lie at the level of the controls, where differences are scatter.
# Tests used:
# Assay in all cases: level (log10 ratio to DMSO vehicle control); higher = higher biomarker level / cell amount than vehicle control
# [1] = compound: C=C(C)C(=O)OCC(F)(F)C(F)(F)C(F)(F)C(F)(F)C(F)(F)C(F)(F)C(F)(F)F; conditions: in DMSO
# Method: (§1)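 BioMAP Diversity Plus panel of 12 human primary cell co-culture systems (3C, 4H, LPS, SAg, BT, BF4T, BE3C, CASM3C, HDF3CGF, KF3CT, MyoF, Mphg). Compounds were added 1 h before stimulation and left for 24 h (MyoF 48 h; BT 72 h for soluble read-outs or 6 d for IgG). Biomarkers were read by ELISA, cytotoxicity by SRB, PBMC viability and proliferation by Alamar Blue. Each well value was divided by the mean of 8 DMSO control wells on the same plate and log10 transformed; duplicate blinded samples were tested at 4 concentrations.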
# [2] = compound: C=CC(=O)OCC(F)(F)C(F)(F)C(F)(F)C(F)(F)C(F)(F)C(F)(F)C(F)(F)F [1H,1H-Perfluorooctyl acrylate]; conditions: 2200 nM; in DMSO
# Method: as §1
# [3] = compound: C=CC(F)(F)C(F)(F)C(F)(F)C(F)(F)C(F)(F)C(F)(F)C(F)(F)C(F)(F)C=C [1,8-Divinylperfluorooctane]; conditions: in DMSO
# Method: as §1
# [4] = compound: COC(=O)C(F)(F)C(F)(F)OC(F)(C(F)(F)F)C(F)(F)OC(F)=C(F)F [Methyl perfluoro(3-(1-ethenyloxypropan-2-yloxy)propanoate)]; conditions: in DMSO
# Method: as §1
# [5] = compound: CO[Si](C)(CCC(F)(F)C(F)(F)C(F)(F)C(F)(F)C(F)(F)C(F)(F)F)OC [Dimethoxymethyl((perfluorohexyl)ethyl)silane]; conditions: in DMSO
# Method: as §1
# [6] = compound: FC(F)(F)C(F)(F)C(F)(F)CC1CO1 [1H,1H-Heptafluorobutyl epoxide]; conditions: 2200 nM; in DMSO
# Method: as §1
# [7] = compound: FC(F)(F)C(F)(F)C(F)(F)CI [Heptafluorobutyl iodide]; conditions: 2200 nM; in DMSO
# Method: as §1
# [8] = compound: NC(=O)C(F)(F)C(F)(F)C(F)(F)C(F)F; conditions: in DMSO
# Method: as §1
# [9] = compound: NC(=O)C(F)(F)C(F)(F)F [Pentafluoropropionamide]; conditions: 2200 nM; in DMSO
# Method: as §1
# [10] = compound: NS(=O)(=O)C(F)(F)C(F)(F)C(F)(F)C(F)(F)C(F)(F)C(F)(F)C(F)(F)C(F)(F)F [Perfluorooctanesulfonamide]; conditions: in DMSO
# Method: as §1
# [11] = compound: O=C(O)C(F)(F)C(F)(F)C(F)F [4H-Perfluorobutanoic acid]; conditions: in DMSO
# Method: as §1
# [12] = compound: O=P(O)(O)CCC(F)(F)C(F)(F)C(F)(F)C(F)(F)C(F)(F)C(F)(F)F [2-(Perfluorohexyl)ethylphosphonic acid]; conditions: 2200 nM; in DMSO
# Method: as §1
# [13] = compound: O=S(=O)(F)C(F)(F)C(F)(F)C(F)(F)C(F)(F)C(F)(F)C(F)(F)C(F)(F)C(F)(F)F [Perfluorooctanesulfonyl fluoride]; conditions: 2200 nM; in DMSO
# Method: as §1
# [14] = compound: O=S(=O)(O)C(F)(F)C(F)(F)C(F)(F)C(F)(F)C(F)(F)C(F)(F)C(F)(F)C(F)(F)F [Perfluorooctanesulfonic acid]; conditions: 2200 nM; in DMSO
# Method: as §1
# [15] = compound: O=S(=O)(O)C(F)(F)C(F)(F)C(F)(F)C(F)(F)C(F)(F)C(F)(F)C(F)(F)C(F)(F)F [Potassium perfluorooctanesulfonate]; conditions: 2200 nM; in DMSO
# Method: as §1
# [16] = compound: O=S(=O)(OCC(F)(F)F)C(F)(F)C(F)(F)C(F)(F)C(F)(F)F [2,2,2-Trifluoroethyl perfluorobutanesulfonate]; conditions: 2200 nM; in DMSO
# Method: as §1
# [17] = compound: OCC(F)(F)C(F)(F)C(F)(F)C(F)(F)C(F)(F)C(F)F [1H,1H,7H-Dodecafluoro-1-heptanol]; conditions: 2200 nM; in DMSO
# Method: as §1
# [18] = compound: OCCCCC(F)(F)C(F)(F)C(F)(F)C(F)(F)F [4:4 Fluorotelomer alcohol]; conditions: 2200 nM; in DMSO
# Method: as §1
Test System,level (log10) ([1]; 740 nM),level (log10) ([1]; 2200 nM),level (log10) [2],level (log10) ([3]; 740 nM),level (log10) ([3]; 2200 nM),level (log10) ([4]; 740 nM),level (log10) ([4]; 2200 nM),level (log10) ([5]; 740 nM),level (log10) ([5]; 2200 nM),level (log10) [6],level (log10) [7],level (log10) ([8]; 2200 nM),level (log10) ([8]; 6700 nM),level (log10) ([8]; 20000 nM),level (log10) ([8]; 60000 nM),level (log10) [9],level (log10) ([10]; 2200 nM),level (log10) ([10]; 6700 nM),level (log10) ([10]; 20000 nM),level (log10) ([11]; 2200 nM),level (log10) ([11]; 6700 nM),level (log10) ([11]; 20000 nM),level (log10) ([11]; 60000 nM),level (log10) [12],level (log10) [13],level (log10) [14],level (log10) [15],level (log10) [16],level (log10) [17],level (log10) [18]
MyoF:CXCL8/IL-8,0.0065 ± 0.018,-0.007 ± 0.021,0.0315 ± 0.053,0.015 ± 0.0057,-0.0285 ± 0.011,0.0285 ± 0.04,0.0395 ± 0.043,-0.007 ± 0.017,-0.0085 ± 0.011,-0.003 ± 0.023,-0.007 ± 0.011,-0.0245 ± 0.0064,-0.0285 ± 0.0092,-0.0185 ± 0.028,0.018 ± 0.054,-0.0135 ± 0.028,-0.0185 ± 0.005,-0.04 ± 0.031,-0.013 ± 0.0085,-0.007 ± 0.017,-0.0125 ± 0.059,-0.0145 ± 0.0035,0.0465 ± 0.074,0.0075 ± 0.015,0.0015 ± 0.018,-0.027 ± 0.0028,0.0105 ± 0.06,0.0335 ± 0.032,-0.0195 ± 0.09,0.027 ± 0.0014
BT:Secreted IgG,-0.019 ± 0.11,-0.0025 ± 0.018,0.017 ± 0.0042,-0.0095 ± 0.00071,0.016 ± 0.013,0.0285 ± 0.032,0.021 ± 0.033,0.0275 ± 0.039,-0.007 ± 0.095,0.018 ± 0.0099,0.0165 ± 0.021,-0.0195 ± 0.037,0.0115 ± 0.073,0.026 ± 0.0085,-0.0005 ± 0.026,0.0015 ± 0.036,0.0055 ± 0.021,-0.018 ± 0.0085,-0.141 ± 0.1,-0.028 ± 0.051,0.0315 ± 0.036,0.0205 ± 0.03,0.014 ± 0.041,0.025 ± 0.011,0.008 ± 0.0071,0.0005 ± 0.015,0.035 ± 0.025,0.022 ± 0.017,0.0165 ± 0.028,0.0145 ± 0.005
MyoF:Collagen III,0.003 ± 0.0099,-0.0015 ± 0.011,-0.0005 ± 0.013,-0.023 ± 0.0085,-0.0145 ± 0.011,0.0065 ± 0.00071,-0.0025 ± 0.015,-0.011 ± 0.0028,0.005 ± 0.016,-0.0185 ± 0.021,-0.0215 ± 0.022,-0.0095 ± 0.0021,0.003,0.0135 ± 0.00071,-0.0065 ± 0.035,-0.0125 ± 0.00071,-0.0085 ± 0.013,-0.014 ± 0.0099,-0.242 ± 0.023,0.0135 ± 0.0064,0.022 ± 0.0099,0.0155 ± 0.0064,0.034 ± 0.014,-0.005,0.0105 ± 0.032,-0.0025 ± 0.029,-0.0045 ± 0.0021,0.008 ± 0.027,-0.0105 ± 0.0064,0.007 ± 0.011
